Experimental data: article PMC9268489
These are yes or no findings as the source states them, for the method shown. Binding seen in cells or lysates may run through a third protein. A result given as binding can be weak or reduced; the word gives no strength.

Target: T1, G-protein-coupled estrogen receptor (GPER1), mouse gastric smooth muscle (mouse (endogenous in gastric smooth muscle)) (UniProt Q8BMP4)
T1 sequence: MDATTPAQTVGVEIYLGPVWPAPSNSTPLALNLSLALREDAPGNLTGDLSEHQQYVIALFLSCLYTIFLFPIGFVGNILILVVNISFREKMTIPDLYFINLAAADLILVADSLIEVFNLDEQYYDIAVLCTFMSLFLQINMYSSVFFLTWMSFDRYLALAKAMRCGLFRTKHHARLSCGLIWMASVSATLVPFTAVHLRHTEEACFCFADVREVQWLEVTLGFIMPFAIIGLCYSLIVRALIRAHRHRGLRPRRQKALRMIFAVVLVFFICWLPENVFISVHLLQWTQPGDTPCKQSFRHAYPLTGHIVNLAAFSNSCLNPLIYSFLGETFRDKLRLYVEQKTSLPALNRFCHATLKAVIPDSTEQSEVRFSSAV
Assay: co-IP; mouse gastric smooth muscle (MGSM) lysate (Triton X-100-based lysis buffer), GPER1 antibody, protein A/G agarose, immunoblot

angiotensin II type 1 receptor (AT1R), mouse gastric smooth muscle
binding: binds
